This data set is described as follows: general procedure: Fmoc solid-phase peptide synthesis; 2-CTC resin; HATU/DIPEA (solution-phase conjugations). The following applies: whole synthesis, scale 3.00 mmol, TFA salt.

The values that follow come from US20260199497A1 (priority 2023, published 2026).

Consider “1-(3,5-bis(2-(methylthio)pyrimidin-5-yl)phenyl)-2,5,8,11,14,17,20,23,26,29-decamethyl-1,4,7,10,13,16,19,22,25,28-decaoxo-2,5,8,11,14,17,20,23,26,29-decaazahentriacontane-31-carboxylic acid”, for which the isolated mass turned out to be 1117.1 mg.
